Data as given in patent US12478627B2, “Irsogladine for the treatment of eosinophilic gastrointestinal diseases” (EPITHELION SCIENCE BIOTECH, S.L., priority 2019, dated 2025).
At least one compound was matched to its structure with a doubt left.

Key:
EoE and EoGIDs = details: literature reports, cited from earlier work
[1] = test system: Eosinophilic Esophagitis (EoE); assay: Example 1: oral Irsogladine maleate in patient one with active eosinophilic esophagitis; assay type: in vivo, human; details: history before Irsogladine treatment
Description: […] […] […] A esophageal pH-metric study, performed without PPI treatment, was informed as normal. […] Without other type of examination, JCC was empirically treated in three occasions with Budesonide.
When seen, JCC was symptomatic, with difficulties to swallow food. Because of the symptoms and clinical history, Eosinophilic Esophagitis was suspected (Lucendo A J, et al. supra; Dellon E S, et al. supra; Lipowska A M, Kavitt R T. Current Diagnostic and Treatment Strategies for Eosinophilic Esophagitis. Gastroenterol Hepatol (N Y) 2017; 13(9):527-535). […] They had neither blood nor urine biological tests abnormalities. […] An Enteral Magnetic Resonance Imaging was informed as normal, without inflammatory features, increased wall thickness or strictures in the gastro-intestinal tract.
Simultaneously, biopsies were taken in all organs examined. […] Biopsies met the histological criteria of active eosinophil esophagitis (Lee S, de Boer W B, Naran A, et al. More than just counting eosinophils: proximal oesophageal involvement and subepithelial sclerosis are major diagnostic criteria for eosinophilic oesophagitis. J Clin Pathol. 2010; 63 (7):644-647; Collins M H, Capocelli K, Yang G Y. Eosinophilic Gastrointestinal Disorders Pathology. Front Med (Lausanne). 2018; 4:261). Gastric, duodenal and upper jejunal biopsies were reported as normal. […]

eosinophilic jejunitis = assay: Example 3: Irsogladine maleate in patient two with mild eosinophilic jejunitis; assay type: in vivo, human; details: Omeprazole 20 mg twice a day and Mebeverine Chlorhydrate 200 mg twice daily, long periods, before Irsogladine

Compound	induction or maintenance of disease remission (EoE and EoGIDs; eosinophilic esophagitis)	clinical symptoms (EoE and EoGIDs; patients with EoE or EoGIDs)	tissue eosinophil infiltrate (EoE and EoGIDs; patients with EoE or EoGIDs)	response of symptoms to earlier treatments [1]	response of symptoms to earlier symptomatic treatment (eosinophilic jejunitis)
CC(C)(O)c1ccccc1CC[C@@H](SCC1(CC(=O)O)CC1)c1cccc(/C=C/c2ccc3ccc(Cl)cc3n2)c1 [Montelukast]	has not proven therapeutic efficacy	has not shown efficacy	has not shown efficacy		
CCCC1O[C@@H]2C[C@H]3[C@@H]4CCC5=CC(=O)C=C[C@]5(C)[C@H]4[C@@H](O)C[C@]3(C)[C@]2(C(=O)CO)O1 (stereo partly drawn) [Budesonide]				effective to improve symptoms, relapse was the rule	
COc1ccc2[nH]c([S+]([O-])Cc3ncc(C)c(OC)c3C)nc2c1 (stereo not drawn) [Omeprazole]				unsuccessfully treated	no improvement
